PubChem BioAssay AID1259425 | University of Nebraska Medical Center | 2018

Aim: 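Find knockdowns that reproduce the gene expression pattern seen when KSR1 is lost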 (primary screen)
Cells: HCT116 human colon cancer cells
Reagents: siRNA pool against human genes, 50 nM siRNA
Measured: 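mRNA of six signature genes measured together by branched-DNA assay after 50 nM siRNA pool, blank removed, divided by geometric mean of two housekeeping genes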
Reading the numbers: BNIP3L mRNA: higher = more BNIP3L transcript after knockdown; NDRG1 mRNA: higher = more NDRG1 transcript after knockdown; BNIP3 mRNA: higher = more BNIP3 transcript after knockdown; ALDOC mRNA: higher = more ALDOC transcript after knockdown; ACSL5 mRNA: higher = more ACSL5 transcript after knockdown
In all, the deposit lists about 14,000 reagents; below is an unselected part. No sequences are given here. The record does not give: the time to read-out.

| gene knocked down | BNIP3L mRNA, set 1 | NDRG1 mRNA, set 1 | BNIP3 mRNA, set 1 | ALDOC mRNA, set 1 | ACSL5 mRNA, set 1 |
| --- | --- | --- | --- | --- | --- |
| LOC81787 (retired record) | 0.256 | 0.317 | 0.423 | 0.0495 | 0.192 |
| OXA1L | 0.238 | 0.516 | 0.276 | 0.035 | 0.262 |
| DUX5 | 0.245 | 0.554 | 0.381 | 0.017 | 0.234 |
| RFX3 | 0.0647 | 0.122 | 0.289 | 0.0194 | 0.215 |
| FFAR3 | 0.119 | 0.29 | 0.253 | 0.0368 | 0.216 |
| ABCA7 | 0.203 | 0.22 | 0.336 | 0.0158 | 0.115 |
| NUDT2 | 0.252 | 0.127 | 0.38 | 0.0359 | 0.327 |
| ZNF461 | 0.107 | 0.134 | 0.272 | 0.0362 | 0.11 |
| RTP3 | 0.0817 | 0.048 | 0.271 | 0.0677 | 0.0736 |
| PCDHA9 | 0.097 | 0.123 | 0.47 | 0.0138 | 0.0916 |
| NGDN | 0.159 | 0.443 | 0.907 | 0.0276 | 0.191 |
| COL9A1 | 0.0998 | 0.755 | 0.12 | 0.0337 | 0.0957 |
| CSRP1 | 0.0858 | 0.16 | 0.235 | 0.0161 | 0.137 |
| CDC25B | 0.111 | 0.175 | 0.345 | 0.0347 | 0.193 |
| EBP | 0.142 | 0.296 | 0.212 | 0.0144 | 0.161 |
| NXF2 | 0.139 | 0.162 | 0.378 | 0.0886 | 0.267 |
| POLR3B | 0.239 | 1.2 | 0.321 | 0.0243 | 0.298 |
| SCARA3 | 0.0892 | 0.0645 | 0.299 | 0.0141 | 0.113 |
| AHCYL1 | 0.111 | 0.0874 | 0.291 | 0.055 | 0.17 |
| OPCML | 0.122 | 0.153 | 0.278 | 0.0132 | 0.102 |
| GANC | 0.119 | 0.0664 | 0.341 | 0.0159 | 0.225 |
| TMEM43 | 0.171 | 0.223 | 0.394 | 0.0455 | 0.176 |
| SEPTIN1 | 0.106 | 0.0914 | 0.298 | 0.00938 | 0.152 |
| HSF2BP | 0.221 | 0.106 | 0.438 | 0.0293 | 0.165 |
| ERCC4 | 0.0514 | 1.13 | 0.224 | 0.0165 | 0.201 |
| ZMYND12 | 0.103 | 0.184 | 0.229 | 0.0846 | 0.226 |
| PPP1R1A | 0.0945 | 0.118 | 0.25 | 0.0322 | 0.0788 |
| CAPZA2 | 0.0592 | 0.106 | 0.238 | 0.00858 | 0.147 |
| GDA | 0.123 | 0.108 | 0.394 | 0.0246 | 0.152 |
| TNFRSF10D | 0.0608 | 0.0494 | 0.362 | 0.0187 | 0.221 |
| USP36 | 0.0855 | 0.13 | 0.243 | 0.0284 | 0.28 |
| SNPH | 0.115 | 0.132 | 0.197 | 0.0171 | 0.161 |
| AKAP3 | 0.15 | 0.294 | 0.313 | 0.00791 | 0.301 |
| TAS2R5 | 0.0604 | 0.0619 | 0.44 | 0.0301 | 0.181 |

Quoted from the listing for reference:
| gene knocked down | BNIP3L mRNA, set 1 | NDRG1 mRNA, set 1 | BNIP3 mRNA, set 1 | ALDOC mRNA, set 1 | ACSL5 mRNA, set 1 |
| --- | --- | --- | --- | --- | --- |
| ZMYND12 | 0.103 | 0.184 | 0.229 | 0.0846 | 0.226 |
| PPP1R1A | 0.0945 | 0.118 | 0.25 | 0.0322 | 0.0788 |
